# Assay results published in patent US20050222062.
# Where cells or extracts were used, other partners may take part. For some assays here: Negatives hold for the conditions tested. For some assays here: Protein sequences can lack the tags named with them. For some assays here: Weaker means in comparison with the reference protein, sequence or condition of that experiment.
# Columns and labels:
# [1] = target: T1, GATA3 delN (N finger deletion) del263-287 (Mus musculus) (UniProt P23772); assay: EMSA; conditions: protein in a lysate after overexpression, protein details: expressed in COS cells from pME18S, label: 32P
# T1 sequence: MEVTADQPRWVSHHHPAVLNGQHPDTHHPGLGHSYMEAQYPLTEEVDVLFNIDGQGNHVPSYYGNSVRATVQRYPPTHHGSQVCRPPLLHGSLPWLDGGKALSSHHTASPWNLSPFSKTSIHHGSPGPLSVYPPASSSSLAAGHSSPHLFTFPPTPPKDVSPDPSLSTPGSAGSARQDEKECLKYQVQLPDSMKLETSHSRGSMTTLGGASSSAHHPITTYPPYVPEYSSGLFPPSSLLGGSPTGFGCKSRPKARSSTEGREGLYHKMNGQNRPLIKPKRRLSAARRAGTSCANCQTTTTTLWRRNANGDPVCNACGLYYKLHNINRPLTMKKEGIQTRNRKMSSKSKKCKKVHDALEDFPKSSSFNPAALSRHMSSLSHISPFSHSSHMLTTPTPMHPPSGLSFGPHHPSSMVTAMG
# [2] = target: GATA3 wild type (Mus musculus) (UniProt P23772); assay: EMSA; conditions: protein in a lysate after overexpression, protein details: expressed in COS cells from pME18S, label: 32P
# [3] = target: GATA3 delC (C finger deletion) del304-325 (Mus musculus) (UniProt P23772); assay: EMSA; conditions: protein in a lysate after overexpression; protein details: expressed in COS cells from pME18S; label: 32P
# [4] = target: GATA3 wild type (Mus musculus) (UniProt P23772); assay: competition with a labelled probe; conditions: protein in a lysate after overexpression, protein details: expressed in COS cells from pME18S, label: 32P
Sequence,binding result ([1]; text p49 and p60 say delN binds only HSS2),binding result ([2]; supershifted by anti-GATA3 antibody),binding result [3],"binding result ([4]; lower affinity than TCRα enhancer, 200-fold unlabeled HSS2 did not fully compete TCRα probe, 100-fold did not fully compete HSS2 probe)",binding result ([1]; text p49 and p60),binding result [2],"binding result ([4]; higher affinity than HSS2, 50-fold unlabeled TCRα enhancer competed TCRα probe and almost all HSS2 probe binding)"
GAGGCCTCATTATCTTCATTCATTTCTC (double strand) [HSS2 (CNS-1) GATA sequence],binds,binds,no binding,binds more weakly,,,
GAGGTGTCCTCTATCTGATTGTTAGCAA (double strand) [TCRα enhancer GATA3 site],,,no binding,,no binding,binds,binds
GTTAGAGATAGCATCGCCCCA (double strand) [IL-5 promoter GATA3 site],,,no binding,,no binding,binds,
